Library compounds against nucleic acid targets

Data from the ROBIN nucleic acid binder screens, doi:10.1002/anie.202211358.

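The test is a small-molecule microarray: each compound is printed twice on a reactive slide, and binding shows as fluorescence of the labelled oligonucleotide after washing. For the PreQ1, TPP and SAM-II riboswitches the laboratory earlier reported (doi:10.1038/s41467-019-09493-3) 1 µM RNA, 2 h, and a rule that included a mean Z-score above 3 (spot signal-to-noise against the whole library), a score well above that on a control array, and duplicate spots agreeing (coefficient of variation under 100). The data file gives only the calls; its cut-offs may differ, and compounds hitting several targets are kept. The calls come from the array alone, and fixing a compound to the slide can hide its binding.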
Key: Y = hit, N = tested without a hit.
The compounds are a random part of those screened.
A dash means that no call is listed here.

Oligonucleotides screened, 5′ to 3′:
TPP: TPP riboswitch RNA three-way junction, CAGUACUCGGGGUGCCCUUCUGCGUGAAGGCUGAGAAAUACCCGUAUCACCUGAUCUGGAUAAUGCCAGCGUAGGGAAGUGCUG. Hit rate about 0.7% of about 24,000 compounds.
SAM-II: SAM-II riboswitch RNA pseudoknot, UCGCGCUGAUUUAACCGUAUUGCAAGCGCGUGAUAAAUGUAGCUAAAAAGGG. Hit rate about 1% of about 21,000 compounds.
PreQ1: PreQ1 riboswitch RNA pseudoknot, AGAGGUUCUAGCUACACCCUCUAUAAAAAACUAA. From B. subtilis. Hit rate about 0.7% of about 24,000 compounds.

| Compound | TPP | SAM-II | PreQ1 |
|---|---|---|---|
| `O=C(O)C1CN(C(=O)c2cc3sccc3[nH]2)CCN1` (configuration not stated) | N | N | N |
| `Cc1nc2cc(CO)ccc2n1-c1ccccc1` | N | N | N |
| `O=C1c2ccccc2C(Nc2cccc(C(F)(F)F)c2)N1Cc1ccccc1` (configuration not stated) | N | N | N |
| `N#Cc1nc(C=Cc2cccs2)oc1NCCCn1ccnc1` | N | - | N |
| `Cc1nc(CC[C@H](N)C(=O)O)n(Cc2ccc(F)cc2)n1` | N | N | N |
| `Cc1ccc2c(c1)N(CCO)C(=Cc1cccc[n+]1C)S2` | N | N | N |
| `Cc1cc(C)cc(NC(=O)N2CCN(C(=O)c3nonc3N)CC2)c1` | N | - | N |
| `CC(C)CNc1nc2c(c(=O)n(C)c(=O)n2C)n1Cc1ccccc1` | N | N | N |
| `Cc1cc(C)n(C(=O)CNc2ccccc2Cl)n1` | N | N | N |
| `CC(=O)c1cc2c(cc1C)CCCC2(C)C` | N | N | N |
| `COCCCNc1oc(-c2ccccc2)nc1S(=O)(=O)c1ccccc1` | N | - | N |
| `Cc1ccc(C)c(N2CCN(c3ccncc3N)CC2)c1` | N | N | N |
| `CCc1nc(C)sc1Cn1ncc(N2CCC(CN)C2)cc1=O` (configuration not stated) | N | N | N |
| `CN(C)c1cccc2c(S(=O)(=O)NC(CCO)C(=O)O)cccc12` (configuration not stated) | N | N | N |
| `CCc1nc2c(c(NCC(CO)Cc3ccsc3)n1)CCNCC2` (configuration not stated) | N | N | N |
| `OCc1ccc(-c2nccn2Cc2nnnn2-c2ccccc2)o1` | N | N | N |
| `COc1cccc(NC(=O)c2sc3nc(-c4ccccc4Cl)nc(C)c3c2N)c1` | N | N | N |
| `N#CC1=C(N)OC2=C(C1c1cccnc1)S(=O)(=O)N(Cc1ccc(F)cc1)c1ccccc12` (configuration not stated) | N | - | N |
| `CC(O)c1nc2ccccc2n1Cc1ccc(C(C)(C)C)cc1` (configuration not stated) | N | N | N |
| `CCCc1n[nH]c2c1C(c1cc(OC)c(OC)c(OC)c1)C(C#N)=C(N)O2` (configuration not stated) | N | N | N |
| `Cc1cc(C)c(-c2c(Nc3cccc(-c4ccno4)c3)c(=O)c2=O)cc1C` | N | - | N |
| `Cc1ccc(S(=O)(=O)n2nc(C)cc2N)cc1` | N | N | N |
| `COc1cc(OC)cc(-c2cc(N)n(S(=O)(=O)c3ccc(F)c(C)c3)n2)c1` | N | N | N |
| `CN1CCN([C@H]2CCN(C(=O)c3cccc4c3ccn4C)C[C@H]2CCCO)CC1` | N | N | N |
| `CCn1nc(CNC(=O)[C@H]2CNC[C@@H](C(=O)N3CCOCC3)C2)c2ccccc21` | N | N | N |
| `O=S(=O)(NC1CCCCC1Nc1ccccc1)c1ccc(Cl)cc1` (configuration not stated) | N | - | N |
| `COc1ccc(Cl)cc1NCc1nnc(-c2ccccc2)o1` | N | - | N |
| `Cc1cc(C)n2nc(CNc3ccccc3Cl)nc2n1` | N | - | N |
| `CCCCOc1ccc(-c2ncc(N)cn2)cc1` | Y | N | N |
| `Cc1cc(C)cc(OCC(O)Cn2c(C3CC(=O)N(C(C)(C)C)C3)nc3ccccc32)c1` (configuration not stated) | N | - | N |
| `Cn1c(=O)oc2cc(S(=O)(=O)N(CCO)CCO)ccc21` | N | N | N |
| `O=C(CCc1nc(Cl)n[nH]1)N1C[C@@H](CN2CCCCC2)[C@@H](CO)C1` | N | N | N |
| `Nc1nnc(SCC(=O)c2ccc(Br)cc2)[nH]1` | N | N | Y |
| `Cc1ccccc1CSc1nc(N)cc(N2CCCC(O)(CO)CC2)n1` (configuration not stated) | N | N | N |
| `CNc1ccc(C(=O)Oc2cc(O/N=[N+](\O)N(C)C)c([N+](=O)[O-])cc2C#N)cc1` | N | N | N |
| `CCCCCCCCCCCC1=C(O)C(=O)C=C(O)C1=O` | N | N | N |
| `Cc1sc(-c2c(C#N)c(N)nc3c2CCCCC3)cc1Br` | N | N | N |
| `CC(C)Nc1nc(N)c(C(=O)c2ccc(Cl)s2)s1` | N | N | N |
| `Cc1ccc(CSc2nnc(CCN)o2)cc1` | N | N | N |
| `Cc1ccc(C)c(Nc2nc(-c3ccncc3)cs2)c1` | N | N | N |
| `Cn1c(=O)c2c(nc(NCCN)n2Cc2ccc(F)cc2)n(C)c1=O` | N | N | N |
| `CN(C)c1ccc(Cc2nc(C3(c4ccccc4)CC3)nn2CCO)cc1` | N | N | N |
| `CS(=O)(=O)N1CCC(NCCN2CCCC(c3ccccc3)C2)CC1` (configuration not stated) | N | N | N |
| `COC(=O)c1nnn(-c2ccc(Cl)cc2C)c1N` | N | N | N |
| `CCOc1ccc(-c2cnc(NCc3ccccc3Cl)n2C)cc1` | N | N | N |
| `Cc1ccccc1CN1C(=O)C(O)(CC(=O)c2ccc(N)cc2)c2ccccc21` (configuration not stated) | N | N | N |
| `COc1ccc(-c2nn3c(NCCCN4CCOCC4)cc(C)nc3c2C)cc1OC` | N | - | N |
| `O=C(NCCOCCO)c1c(O)nc2ccccn2c1=O` | N | N | N |
| `Nc1ccc(-c2n[nH]c(-c3ccc(Cl)cc3)n2)cc1` | N | N | N |
| `C=CCSc1nnc2nc(O)cc(N)n12` | N | N | N |
| `O=C(CCc1cc(Cl)no1)N1CCC2(CCNCC2)CC1` | N | N | N |
| `N#CC1=C(N)Oc2c(c(=O)[nH]c3ccccc23)C1c1ccccc1` (configuration not stated) | N | N | N |
| `CCC[C@H]1CN(C(=O)c2oc(C)nc2C)C[C@@H]1N` | N | N | N |
| `CC(C)(C)c1nc2c3cc[nH]c(=O)c3c3cc(F)ccc3c2[nH]1` | N | N | N |
| `Cc1ccc(Nc2cc(C)nc3nc(-c4cccnc4)nn23)cc1` | N | - | N |
| `Nc1cccc(N2CCn3c(nc4ccccc43)C2)c1` | N | - | N |
| `OCCN1CCN(CCCN2c3ccccc3Sc3ccc(C(F)(F)F)cc32)CC1` | N | N | N |
| `CCn1c(N)nc2cc(C(=O)NCc3cccnc3-n3cncn3)cnc21` | N | N | N |
| `CN(Cc1nc(-c2ccccn2)no1)C(=O)c1ccc(C2CCNC2)cc1` (configuration not stated) | N | N | N |
| `CCCCS(=O)c1sc2nc(C)cc(C)c2c1N` (configuration not stated) | N | N | N |
| `O=C1OC2(CCNCC2)CN1Cc1cc(C(F)(F)F)ccc1F` | N | N | N |
| `COc1ccc(-c2nc(NC3CCCCC3)sc2CCC(=O)O)cc1` | N | - | N |
| `Cc1cccc(Nc2ncc(F)c(N3CCOCC3)n2)c1C` | N | N | N |
| `N#Cc1c(-c2ccc(C3CCCCO3)s2)cc(-c2cc[nH]c2)nc1N` (configuration not stated) | N | N | N |
| `Cc1cccc(C)c1Nc1c(-c2ccc(O)cc2)nc2ncccn12` | N | N | N |
| `Cc1nc2c(c(Nc3ccccc3OC(C)C)n1)CCC2` | N | - | N |
| `CC(C)c1ccnc(NCC(O)c2ccccc2Cl)n1` (configuration not stated) | N | N | N |
| `O=C(Nc1ccccc1)Nc1ccccn1` | N | N | N |

6 of the entries, repeated:

| Compound | TPP | SAM-II | PreQ1 |
|---|---|---|---|
| `Cc1cc(C)n(C(=O)CNc2ccccc2Cl)n1` | N | N | N |
| `Cn1c(=O)oc2cc(S(=O)(=O)N(CCO)CCO)ccc21` | N | N | N |
| `CC(O)c1nc2ccccc2n1Cc1ccc(C(C)(C)C)cc1` (configuration not stated) | N | N | N |
| `Cc1cc(C)c(-c2c(Nc3cccc(-c4ccno4)c3)c(=O)c2=O)cc1C` | N | - | N |
| `C=CCSc1nnc2nc(O)cc(N)n12` | N | N | N |
| `Cc1cc(C)n2nc(CNc3ccccc3Cl)nc2n1` | N | - | N |